From publication PMC7819943, “Rice protein-binding microarrays: a tool to detect cis-acting elements near promoter regions in rice”
The other results are listed elsewhere or left out.

The chains behind the UniProt entries cited, without tags or fusion partners.
UniProt Q0JBA9, entry or part of it: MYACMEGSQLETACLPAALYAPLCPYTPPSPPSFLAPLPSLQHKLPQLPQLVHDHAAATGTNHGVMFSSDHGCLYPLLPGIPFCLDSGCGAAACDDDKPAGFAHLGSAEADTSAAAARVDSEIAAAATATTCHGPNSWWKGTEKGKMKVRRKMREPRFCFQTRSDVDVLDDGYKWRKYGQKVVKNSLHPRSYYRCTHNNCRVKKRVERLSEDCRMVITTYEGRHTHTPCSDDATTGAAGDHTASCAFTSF

target: OsWRKY34 (Oryza sativa, UniProt Q0JBA9 1-250); test: protein-binding microarray (RPBM); PBS, 2% BSA, 51.3 ng/ul salmon testes DNA, 50 uM zinc acetate, 200 nM TF, 25 C, 1 h; high values mean tight binding; settings: protein: recombinant; tags: N-terminal polyhistidine and DsRed monomer fusion (pET32a); label: CyDye5-dUTP incorporated in the synthesized complementary strand; 3' TTTTT single-stranded linker to array surface; dsDNA, one strand shown
How it was run: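 Binding signal is defined as the fluorescence intensity of each feature in arbitrary units, read on an Axon 4000B scanner. Transcription factors with N-terminal polyhistidine and DsRed fusions came from E. coli BL21-CodonPlus and were purified on Ni–NTA. They were incubated at 200 nM for 1 h at 25 °C on a custom Agilent array that had been made double-stranded with Cy5-dUTP, with 50 µM zinc acetate present, and the array was washed.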

Sequence | binding signal
TTTATGCTAGTGTGTTGTGTGTGGATGTATATCCGTGTGGCGGAGTCACCTAGTGCAG | 8990 fluorescence intensity (a.u.)
TAGTTGCTACTAGAGTGTGTTTCTTGTGTTGATCTGAGTTCGGAGTCACCTAGTGCAG | 9590 fluorescence intensity (a.u.)
GCCCGCTAGTTTGTCCTATGCAGCCGCCCTACGTCAGCCACGGAGTCACCTAGTGCAG | 9640 fluorescence intensity (a.u.)
ACTCCGCCGCCACCACGAACTCAATTCCACGGGACAAATTCGGAGTCACCTAGTGCAG | 8330 fluorescence intensity (a.u.)
GCACAGGATTCTGATTTCTAAGCTACCTCTGCCTAGCCTCCGGAGTCACCTAGTGCAG | 8570 fluorescence intensity (a.u.)
GCCTCTGCTTCTCGAAGCCCGGCCTGTAGCCTCGCCTCGCCGGAGTCACCTAGTGCAG | 8630 fluorescence intensity (a.u.)
CGTTCCCATTCCCCGGCCGTTTTCTTGGTGTTTGCATTGCCGGAGTCACCTAGTGCAG | 10200 fluorescence intensity (a.u.)
TTTTAATTATGCTCAAGTCATCTTCTCTCAAACTGTTTTTCGGAGTCACCTAGTGCAG | 9000 fluorescence intensity (a.u.)
ACCAAAACTTTTGACCTTTGACCATGAGTTTCATATTATACGGAGTCACCTAGTGCAG | 9480 fluorescence intensity (a.u.)
GCAACCTCCTCCGCCTCCGTGAACGACCGCCGCCGCTCGTCGGAGTCACCTAGTGCAG | 8520 fluorescence intensity (a.u.)
ATATGGTATGACAACTATCCATCCGAATCCGCTCCATTTTCGGAGTCACCTAGTGCAG | 8400 fluorescence intensity (a.u.)
AGTCTCTTGCCCTTTACCTTGGATATACACATGCTCATTCCGGAGTCACCTAGTGCAG | 8980 fluorescence intensity (a.u.)
TTTGATTGATGGCCATAAGTTGCCACACTTTGCCACACTTCGGAGTCACCTAGTGCAG | 8110 fluorescence intensity (a.u.)
TTCTTCTGTTCAGCTGTCCTCCGTTCCTCCTTACCATGCACGGAGTCACCTAGTGCAG | 9450 fluorescence intensity (a.u.)
CACCATTCCACCAACTAGCTAGCTAGCTAGCCACGCCATCCGGAGTCACCTAGTGCAG | 8970 fluorescence intensity (a.u.)
TACTTAGCAAAAGCATCATTATCGAGGCACGGTTTTTTATCGGAGTCACCTAGTGCAG | 8450 fluorescence intensity (a.u.)
CCGGGAGCCGCAGCCCGCAGTTCGCCACCACCACGGTCCACGGAGTCACCTAGTGCAG | 9520 fluorescence intensity (a.u.)
GCGCCGTCGCTCGTCCTGCTGCTGCTTCCGCCGAATCCTGCGGAGTCACCTAGTGCAG | 10800 fluorescence intensity (a.u.)
GCCACAGCTCTTGATTTCTCGCTGGATCCTGGTTTTCACCCGGAGTCACCTAGTGCAG | 8430 fluorescence intensity (a.u.)
GTCTGTTTCGATCGGTTCTTCCATTGGTACACACACGTCCCGGAGTCACCTAGTGCAG | 11300 fluorescence intensity (a.u.)
TGTGATTTTGTGAGTAATTATTTTCTACTTTGCTAGCTTCCGGAGTCACCTAGTGCAG | 8910 fluorescence intensity (a.u.)

Sequence | binding signal
GCGCCTCGCCTCGCCTCGCCTCACCTCACCTCACCTCACCCGGAGTCACCTAGTGCAG | 9000 fluorescence intensity (a.u.)
ATCCAATCTCCTCCTCGCCGCCATCGCGATCTCCGCCGCCCGGAGTCACCTAGTGCAG | 8120 fluorescence intensity (a.u.)
GTCTCGCCTTCGCCTCGCCTCGTCTGCTCCACCATCCACCCGGAGTCACCTAGTGCAG | 8970 fluorescence intensity (a.u.)
GGCTTTTCCCCTTAGGGGATGATTTGAGTTTTCCTGTTCACGGAGTCACCTAGTGCAG | 8480 fluorescence intensity (a.u.)
ACGCAGCATCCTTTGTTTTTTCAACTTGCTTACACAGTTACGGAGTCACCTAGTGCAG | 8430 fluorescence intensity (a.u.)
ATCCTGGCCACTCGTACCCGTTATAACTTGTCGATCGCTTCGGAGTCACCTAGTGCAG | 13900 fluorescence intensity (a.u.)
CACCATTATCAACTTCCATGTTCATCCGCGTACTGAACACCGGAGTCACCTAGTGCAG | 8280 fluorescence intensity (a.u.)
ATCCTACTTTCCTATTGCTGTCATATGTGTCACGGCTGAACGGAGTCACCTAGTGCAG | 11100 fluorescence intensity (a.u.)
TTTTTCCAATCTCAATTCGCGCATGCACGCGGCCCAACAACGGAGTCACCTAGTGCAG | 8840 fluorescence intensity (a.u.)
CCTTGTTCTTCGGCGATCATTTCGGCTTCTTTTTTGTGGTCGGAGTCACCTAGTGCAG | 9590 fluorescence intensity (a.u.)
AGACAAGTTCGAGTCTCTCTTGCCTCGCGCAGGCACACTCCGGAGTCACCTAGTGCAG | 8440 fluorescence intensity (a.u.)
TCGCACGTTGCTCATTGGATACCTTTTCTGCGCACTACTACGGAGTCACCTAGTGCAG | 9800 fluorescence intensity (a.u.)
GTGACGTGGCTTGGGTTGATTTACTAGAGTAGTATTTTTTCGGAGTCACCTAGTGCAG | 8480 fluorescence intensity (a.u.)
AGATTCAACTCCTACTCTTCGATTTCAATTGCCCATTAGACGGAGTCACCTAGTGCAG | 10800 fluorescence intensity (a.u.)
TATTTGGCTGCGCCGTTACCCACCGTTACGACTAAAAATGCGGAGTCACCTAGTGCAG | 8220 fluorescence intensity (a.u.)
ATGGCTTCATCGATCATGGGTCCCTCATGTCCTTCGCTTTCGGAGTCACCTAGTGCAG | 8610 fluorescence intensity (a.u.)
CATCCATGGCCCCAACCTAGCTAGTGCGTGTTGTGTTCTTCGGAGTCACCTAGTGCAG | 8200 fluorescence intensity (a.u.)
GTGCCACTGTACTATTGTCGTATACTATTTCTTTCTTTTCCGGAGTCACCTAGTGCAG | 10700 fluorescence intensity (a.u.)
ACAGCTATGGCCATTTCCCTGTCTCTGTGGCCGGCCAACTCGGAGTCACCTAGTGCAG | 11100 fluorescence intensity (a.u.)
GTGCCTCGGCGACCATAGCGTTTTCTGATGATCCACTGATCGGAGTCACCTAGTGCAG | 8670 fluorescence intensity (a.u.)
ACACACATACCCCATACTGCTGCTTCTCTCTGTTTGTTGGCGGAGTCACCTAGTGCAG | 9760 fluorescence intensity (a.u.)

Sequence | binding signal
TTTGATAGAACTGGTGTCATGTGCAATTCTCCTTTTCTCCCGGAGTCACCTAGTGCAG | 12300 fluorescence intensity (a.u.)
CCTCGTCGCCTCATCTCGATCTCGTCGATTCTATCCGAGCCGGAGTCACCTAGTGCAG | 11200 fluorescence intensity (a.u.)
GCTCTACGGTTGCTCAGCTTTGGAGTTCCTTGACCTATCCCGGAGTCACCTAGTGCAG | 8990 fluorescence intensity (a.u.)
TTGATTTCACCTGTAGGATTGCTAGTCACAACTTCTCCTTCGGAGTCACCTAGTGCAG | 10600 fluorescence intensity (a.u.)
GGACTCCCGTGGCCTCCCGCACCGCCGCATCCCGTCCATCCGGAGTCACCTAGTGCAG | 10700 fluorescence intensity (a.u.)
CACTAGCTGACGGCCTGACACCTTGGTTCTCTTTCGTTGCCGGAGTCACCTAGTGCAG | 8100 fluorescence intensity (a.u.)
CTAGCTGAATCTGACACCATCGCACGCATCTTTCTGTTACCGGAGTCACCTAGTGCAG | 16100 fluorescence intensity (a.u.)
GCTGTTTTGTCCATCCTGTTTCTGATATGATTTTATATAGCGGAGTCACCTAGTGCAG | 8700 fluorescence intensity (a.u.)
GCCATATTTTACTTGCTGTCGCGTGTTGTGTTGTTGACACCGGAGTCACCTAGTGCAG | 14300 fluorescence intensity (a.u.)
GCTCATTCATTTTTGTTTCGATTTGCAGTGATCGTTTCTACGGAGTCACCTAGTGCAG | 9900 fluorescence intensity (a.u.)
GTGTTCCTCGCTCTCTTCCCTTTCCTTTTTTTCTCTCTCTCGGAGTCACCTAGTGCAG | 9540 fluorescence intensity (a.u.)
AGCGGCGGGGTCGGTGTCGGGTGGTCGCATGGTACAATCTCGGAGTCACCTAGTGCAG | 8820 fluorescence intensity (a.u.)
GCAGTTTAACTTTGACCAAAGTCAAAATATTTTATAATTTCGGAGTCACCTAGTGCAG | 8930 fluorescence intensity (a.u.)
CCTTTTGTCAGTCTAGCCAAAGATCTAGGATCTTCAACACCGGAGTCACCTAGTGCAG | 8100 fluorescence intensity (a.u.)
TTCCCCTTTCGGTTGGGTGCTTTGGCTCTGTTGCTCGATTCGGAGTCACCTAGTGCAG | 8820 fluorescence intensity (a.u.)
TTAGCATAATGTTGCGCAGGCTTGATACTTGAGGGTTTTTCGGAGTCACCTAGTGCAG | 8430 fluorescence intensity (a.u.)
CCGCCAGCGATAGTTTTTTTTTTTGGGGTATGTTTATATACGGAGTCACCTAGTGCAG | 8180 fluorescence intensity (a.u.)
AATTCTTCCTGCCTCATAACGCACGAACGCACGTCACGAACGGAGTCACCTAGTGCAG | 8270 fluorescence intensity (a.u.)
ATCACACACCTTCTCTGCAAAAATCCCAATCTACCACCGCCGGAGTCACCTAGTGCAG | 9250 fluorescence intensity (a.u.)
AAATTCGTCCAAAAACCAAGCTCACCCATGTTTCTGCCCACGGAGTCACCTAGTGCAG | 9490 fluorescence intensity (a.u.)
AGTGGAGTTGTTTTTATTATCGAAGTAAATCGTTTACTCGCGGAGTCACCTAGTGCAG | 8140 fluorescence intensity (a.u.)

Sequence | binding signal
CGGTGATTCGTCTTGTCGCACTTTTCCTGTCTGTAGTGGCCGGAGTCACCTAGTGCAG | 10100 fluorescence intensity (a.u.)
ACATGCACGGCTGCTCCGCCTCGCCAAGGACATCGCCGACCGGAGTCACCTAGTGCAG | 8290 fluorescence intensity (a.u.)
CCAATCTAGCATTTAAATAGCCCATATTTGTCTAATTTCTCGGAGTCACCTAGTGCAG | 8400 fluorescence intensity (a.u.)
TTATTTGTTCCCGTTTTGCCTCTGCTGATTTTGCTGTTGCCGGAGTCACCTAGTGCAG | 8960 fluorescence intensity (a.u.)
CCACCTGTCAGTCAGTTGGAGCTTTTTATCTCTCTCTCTCCGGAGTCACCTAGTGCAG | 8680 fluorescence intensity (a.u.)
TGGCGTTGCTACTACTACTAATCTCTTATCCGCTTCTTAACGGAGTCACCTAGTGCAG | 8280 fluorescence intensity (a.u.)
AGTACCCCTCACCCTGCTCCTCGTCGCTCCACCAAAATCCCGGAGTCACCTAGTGCAG | 8720 fluorescence intensity (a.u.)
TTCCACCTTGTAGCTCTGCACAATTTTATTTTCTGTTATCCGGAGTCACCTAGTGCAG | 12000 fluorescence intensity (a.u.)
AGGTCAATTTTAGTAATGTTCTTTTGGGGTTCAAAACACACGGAGTCACCTAGTGCAG | 9910 fluorescence intensity (a.u.)
CGCCCATCGCCGGCTGCCCCGCCAGCCTCCTCCGCAGTCCCGGAGTCACCTAGTGCAG | 8240 fluorescence intensity (a.u.)
TTCTGATATCTGGTCATATTTTTTTGAACAGGTAGCTATTCGGAGTCACCTAGTGCAG | 27000 fluorescence intensity (a.u.)
ATAGGCAGTCGCTCGTATACACTCATCTCTGTAAATGTACCGGAGTCACCTAGTGCAG | 8760 fluorescence intensity (a.u.)
TGACAATTTAAAGGACCTGAAGTGAACGGCCTACTCTAATCGGAGTCACCTAGTGCAG | 8920 fluorescence intensity (a.u.)
TTTAGCCCATTTCTCCATACATAAACTGTTTTATATTTGACGGAGTCACCTAGTGCAG | 8360 fluorescence intensity (a.u.)
TGGATCGTTCATTCGTTTTATGTGTCCGAGGCATTATTGGCGGAGTCACCTAGTGCAG | 9650 fluorescence intensity (a.u.)
ATGCTTCATAACCATCCCGTTCGTGCTCTTAGCCTCTTACCGGAGTCACCTAGTGCAG | 9140 fluorescence intensity (a.u.)
CTACAGACATTAACCTTTTTTGTGGTGGGTTCTAGCTCTACGGAGTCACCTAGTGCAG | 12800 fluorescence intensity (a.u.)
CCGCCTCCGCACTGCATTCCTTCCAGTTCGTTTCGTTGCCCGGAGTCACCTAGTGCAG | 8020 fluorescence intensity (a.u.)
CTGCCATTACTCCGATTTCCGTCTCTTTCCGCTGCTTCGTCGGAGTCACCTAGTGCAG | 12500 fluorescence intensity (a.u.)
CTTCGTTGGTAATCCGGTTGATTTCGGACTAATTAGTTGTCGGAGTCACCTAGTGCAG | 8520 fluorescence intensity (a.u.)
TCCCGAGCCTTCACTGTTGTCACTTCCATCGGCATCCGTTCGGAGTCACCTAGTGCAG | 13800 fluorescence intensity (a.u.)
